This note sets out measurements from publication PMC1064074.

The chains behind the UniProt entries cited, without tags or fusion partners. Where a name states a change or a piece, a line headed by the entry shows the natural chain unless it says otherwise.
UniProt Q8C6B2: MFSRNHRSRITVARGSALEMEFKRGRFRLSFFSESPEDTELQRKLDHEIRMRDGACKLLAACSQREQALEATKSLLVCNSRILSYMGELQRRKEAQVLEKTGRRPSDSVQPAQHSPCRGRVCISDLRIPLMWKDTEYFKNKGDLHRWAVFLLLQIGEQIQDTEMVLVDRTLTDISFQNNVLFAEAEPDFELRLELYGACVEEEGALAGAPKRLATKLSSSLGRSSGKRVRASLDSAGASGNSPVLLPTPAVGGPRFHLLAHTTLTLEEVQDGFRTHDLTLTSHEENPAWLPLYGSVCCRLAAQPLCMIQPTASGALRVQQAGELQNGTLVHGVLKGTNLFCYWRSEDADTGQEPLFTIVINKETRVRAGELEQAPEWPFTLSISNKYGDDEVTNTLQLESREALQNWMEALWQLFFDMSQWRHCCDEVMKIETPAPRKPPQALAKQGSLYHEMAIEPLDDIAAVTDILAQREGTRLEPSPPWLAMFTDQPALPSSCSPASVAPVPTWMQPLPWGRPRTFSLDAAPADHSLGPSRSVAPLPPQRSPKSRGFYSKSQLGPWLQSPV
UniProt P61586: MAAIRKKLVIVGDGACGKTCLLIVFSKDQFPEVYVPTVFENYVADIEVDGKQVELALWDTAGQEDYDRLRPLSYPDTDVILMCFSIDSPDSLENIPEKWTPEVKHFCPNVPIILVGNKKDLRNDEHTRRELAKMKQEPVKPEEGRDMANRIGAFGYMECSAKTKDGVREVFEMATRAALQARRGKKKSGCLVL

The target in this experiment is GST-RBD (Rho-binding domain of Rhotekin) fusion protein (UniProt Q8C6B2). Description: pull-down; glutathione beads coupled with the GST fusion protein incubated 45 min at 4°C with RIPA extracts of MDA-MB-435 cells (nondeprived or serum deprived for 6 or 24 hours); washed three times with Tris buffer pH 7.2, 1% Triton X-100, 150 mmol/l NaCl, 10 mmol/l MgCl2; bound GTPase detected by immunoblot; only the target purified. (In general: In western blotting, separated proteins are transferred to a membrane and probed.)

These are yes or no findings as the source states them, for the method shown. In cells and extracts the contact can be indirect. A result given as binding can be weak or reduced; the word gives no strength.

As to RhoA (from UniProt P61586 1-193), the binding result was “binds”.
